Source: PubChem BioAssay AID1159584 (Peter MacCallum Cancer Centre, 2016)

Purpose: 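Knock-downs that harm CDH1-null cells more than parental MCF10A cells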 (primary screen)
Cells: human MCF10A breast epithelial cells, parental and CDH1-null
Knock-down reagent: siRNA against human genes
Read-out: 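ATP luminescence (CellTiter-Glo) viability per line relative to mean mock wells over all plates, and the ratio of CDH1-null to parental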
Reading the numbers: CDH1-null / parental viability ratio: higher = CDH1-null cells survive relatively better than parental; CDH1-null viability vs mock: higher = more viable CDH1-null cells
Units: CDH1-null viability vs mock in fraction of mock
The whole screen tested about 18,000 reagents; this is a random part of them. Not all columns of the deposit are shown. Not stated in the record: the amount of reagent, the time to read-out.

VASN (GeneID 114990) [SID152155549]
- CDH1-null / parental viability ratio: 1
- CDH1-null viability vs mock: 0.34

ALG3 (GeneID 10195) [SID135624640]
- CDH1-null / parental viability ratio: 1.07
- CDH1-null viability vs mock: 0.9

IZUMO1R (GeneID 390243) [SID135624865]
- CDH1-null / parental viability ratio: 1.09
- CDH1-null viability vs mock: 0.86

RNF220 (GeneID 55182) [SID135624107]
- CDH1-null / parental viability ratio: 1.01
- CDH1-null viability vs mock: 0.71

MMP11 (GeneID 4320) [SID152153110]
- CDH1-null / parental viability ratio: 1.41
- CDH1-null viability vs mock: 0.58

LAMB1 (GeneID 3912) [SID134316034]
- CDH1-null / parental viability ratio: 1.07
- CDH1-null viability vs mock: 0.86

RHOA (GeneID 387) [SID152150258]
- CDH1-null / parental viability ratio: 1.46
- CDH1-null viability vs mock: 0.7

ARPC2 (GeneID 10109) [SID134316378]
- CDH1-null / parental viability ratio: 1.22
- CDH1-null viability vs mock: 1.09

GALNT4 (GeneID 8693) [SID152150054]
- CDH1-null / parental viability ratio: 0.95
- CDH1-null viability vs mock: 0.88

THAP11 (GeneID 57215) [SID135624207]
- CDH1-null / parental viability ratio: 0.97
- CDH1-null viability vs mock: 0.68

CLDN6 (GeneID 9074) [SID135623042]
- CDH1-null / parental viability ratio: 1.02
- CDH1-null viability vs mock: 0.59

CRTAP (GeneID 10491) [SID152151760]
- CDH1-null / parental viability ratio: 1.11
- CDH1-null viability vs mock: 0.98

MACROD2 (GeneID 140733) [SID135622916]
- CDH1-null / parental viability ratio: 1.22
- CDH1-null viability vs mock: 1.07

ZNF300 (GeneID 91975) [SID134319195]
- CDH1-null / parental viability ratio: 1.33
- CDH1-null viability vs mock: 0.64

CALCOCO2 (GeneID 10241) [SID135621977]
- CDH1-null / parental viability ratio: 1.02
- CDH1-null viability vs mock: 0.98

KDM1B (GeneID 221656) [SID135621508]
- CDH1-null / parental viability ratio: 0.7
- CDH1-null viability vs mock: 0.57

GAR1 (GeneID 54433) [SID152146853]
- CDH1-null / parental viability ratio: 1.02
- CDH1-null viability vs mock: 0.67

ITGA3 (GeneID 3675) [SID134310528]
- CDH1-null / parental viability ratio: 0.89
- CDH1-null viability vs mock: 0.64

ANKRD13D (GeneID 338692) [SID135624585]
- CDH1-null / parental viability ratio: 1.18
- CDH1-null viability vs mock: 0.86

GLYAT (GeneID 10249) [SID134314849]
- CDH1-null / parental viability ratio: 0.97
- CDH1-null viability vs mock: 1.02

NOCT (GeneID 25819) [SID134316687]
- CDH1-null / parental viability ratio: 0.98
- CDH1-null viability vs mock: 0.8

HSPA2 (GeneID 3306) [SID152156012]
- CDH1-null / parental viability ratio: 0.65
- CDH1-null viability vs mock: 0.6

ZNF777 (GeneID 27153) [SID135622627]
- CDH1-null / parental viability ratio: 0.79
- CDH1-null viability vs mock: 0.38

COL5A3 (GeneID 50509) [SID152152475]
- CDH1-null / parental viability ratio: 1.04
- CDH1-null viability vs mock: 0.86

MON1A (GeneID 84315) [SID134318962]
- CDH1-null / parental viability ratio: 1.33
- CDH1-null viability vs mock: 1.1

CNOT1 (GeneID 23019) [SID134319414]
- CDH1-null / parental viability ratio: 0.37
- CDH1-null viability vs mock: 0.18

5 entries from above in another layout.
gene symbol | PubChem SID | CDH1-null / parental viability ratio | CDH1-null viability vs mock
ANKRD13D (GeneID 338692) | SID135624585 | 1.18 | 0.86
GLYAT (GeneID 10249) | SID134314849 | 0.97 | 1.02
NOCT (GeneID 25819) | SID134316687 | 0.98 | 0.8
HSPA2 (GeneID 3306) | SID152156012 | 0.65 | 0.6
ZNF777 (GeneID 27153) | SID135622627 | 0.79 | 0.38

Additional reagents follow.
HLA-DOB (GeneID 3112) [SID152153659]
- CDH1-null / parental viability ratio: 0.9
- CDH1-null viability vs mock: 0.7

PPP5C (GeneID 5536) [SID134314024]
- CDH1-null / parental viability ratio: 1.56
- CDH1-null viability vs mock: 0.84

EXO1 (GeneID 9156) [SID134317355]
- CDH1-null / parental viability ratio: 1.05
- CDH1-null viability vs mock: 1.12

VASH1 (GeneID 22846) [SID135623992]
- CDH1-null / parental viability ratio: 1.07
- CDH1-null viability vs mock: 0.86

CSF1 (GeneID 1435) [SID134321447]
- CDH1-null / parental viability ratio: 1.06
- CDH1-null viability vs mock: 0.93

IFIT5 (GeneID 24138) [SID134323841]
- CDH1-null / parental viability ratio: 0.76
- CDH1-null viability vs mock: 0.64

MRM2 (GeneID 29960) [SID134317844]
- CDH1-null / parental viability ratio: 0.62
- CDH1-null viability vs mock: 0.43

UBE2H (GeneID 7328) [SID135621720]
- CDH1-null / parental viability ratio: 1.04
- CDH1-null viability vs mock: 0.71

ACOT12 (GeneID 134526) [SID135621676]
- CDH1-null / parental viability ratio: 1.14
- CDH1-null viability vs mock: 1

PARP1 (GeneID 142) [SID135621231]
- CDH1-null / parental viability ratio: 0.93
- CDH1-null viability vs mock: 0.84

CABLES2 (GeneID 81928) [SID152153586]
- CDH1-null / parental viability ratio: 1.25
- CDH1-null viability vs mock: 1.25

OR6S1 (GeneID 341799) [SID152153672]
- CDH1-null / parental viability ratio: 1.05
- CDH1-null viability vs mock: 1.12

MYO1B (GeneID 4430) [SID134325609]
- CDH1-null / parental viability ratio: 0.75
- CDH1-null viability vs mock: 0.54

APLP2 (GeneID 334) [SID134310302]
- CDH1-null / parental viability ratio: 0.99
- CDH1-null viability vs mock: 0.89

TUBG2 (GeneID 27175) [SID135621742]
- CDH1-null / parental viability ratio: 1.37
- CDH1-null viability vs mock: 0.82

SACK1G (GeneID 644815) [SID135625488]
- CDH1-null / parental viability ratio: 0.96
- CDH1-null viability vs mock: 0.79

SLC25A17 (GeneID 10478) [SID135621379]
- CDH1-null / parental viability ratio: 1.46
- CDH1-null viability vs mock: 0.6

SPCS2P4 (GeneID 653566) [SID152149702]
- CDH1-null / parental viability ratio: 1.13
- CDH1-null viability vs mock: 0.94

TIMM17B (GeneID 10245) [SID134323792]
- CDH1-null / parental viability ratio: 1.15
- CDH1-null viability vs mock: 0.92
